In the supplement of paper PMC4604168 (melanoma cell lines):
This is one part of the list. Repeats are few or missing, and single values can be far off.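 Imaging used 1,536-well plates; nuclei positive for cleaved PARP by antibody were divided by total DNA-stained nuclei to yield the apoptosis fraction. Doses for screening kept most cells viable, and cell lines differ markedly in resting and induced cleaved-PARP levels.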

system: COLO800; assay: cleaved PARP positive nuclei fraction relative to DMSO control; melanoma cells; higher = more apoptosis; settings: library dose: low library concentration; 72 h

| SMILES | cleaved PARP positive nuclei fraction |
| --- | --- |
| COc1ccc(C2=N[C@@H](c3ccc(Cl)cc3)[C@@H](c3ccc(Cl)cc3)N2C(=O)N2CCNC(=O)C2)c(OC(C)C)c1 [Nutlin-3] + C=CCn1c(=O)c2cnc(Nc3ccc(N4CCN(C)CC4)cc3)nc2n1-c1cccc(C(C)(C)O)n1 [MK1775] (first compound 0.1 µM, partner dose 0.02 µM) | 110% |
| Cn1sc(=O)n(Cc2ccccc2)c1=O + CO[C@@H]1[C@H](N(C)C(=O)c2ccccc2)C[C@H]2O[C@]1(C)n1c3ccccc3c3c4c(c5c6ccccc6n2c5c31)C(=O)NC4 [Midostaurin] (first compound 0.4 µM, partner dose 0.08 µM) | 43.2% |
| Cn1cnc2c(F)c(Nc3ccc(Br)cc3Cl)c(C(=O)NOCCO)cc21 [selumetinib] + Cc1cc(N2CCOCC2)cc2[nH]c(-c3c(NC[C@@H](O)c4cccc(Cl)c4)cc[nH]c3=O)nc12 [BMS536924] (first compound 0.015 µM, partner dose 0.2 µM) | 54.2% |
| CC(=O)O[C@@]12CO[C@@H]1C[C@H](O)[C@@]1(C)C(=O)[C@H](O)C3=C(C)[C@@H](OC(=O)[C@H](O)[C@@H](NC(=O)OC(C)(C)C)c4ccccc4)C[C@@](O)([C@@H](OC(=O)c4ccccc4)[C@H]21)C3(C)C [Docetaxel] + O=C(CCCCCCC(=O)Nc1ccccc1)NO [vorinostat] (first compound 0.0001 µM, partner dose 0.08 µM) | 637% |
| C[C@]1(O)C[C@@H](c2nc(-c3ccc4ccc(-c5ccccc5)nc4c3)c3c(N)nccn32)C1 + CO[C@@H]1[C@H](N(C)C(=O)c2ccccc2)C[C@H]2O[C@]1(C)n1c3ccccc3c3c4c(c5c6ccccc6n2c5c31)C(=O)NC4 [Midostaurin] (first compound 0.4 µM, partner dose 0.08 µM) | 57.2% |
| CS(=O)(=O)c1ccc(C(=O)Nc2ccc(Cl)c(-c3ccccn3)c2)c(Cl)c1 [vismodegib] + NC(=O)Nc1cc(-c2cccc(F)c2)sc1C(=O)N[C@H]1CCCNC1 [AZD7762] (first compound 1 µM, partner dose 0.02 µM) | 73.3% |
| CC(=O)O[C@@]12CO[C@@H]1C[C@H](O)[C@@]1(C)C(=O)[C@H](O)C3=C(C)[C@@H](OC(=O)[C@H](O)[C@@H](NC(=O)OC(C)(C)C)c4ccccc4)C[C@@](O)([C@@H](OC(=O)c4ccccc4)[C@H]21)C3(C)C [Docetaxel] + CO[C@@H]1[C@H](N(C)C(=O)c2ccccc2)C[C@H]2O[C@]1(C)n1c3ccccc3c3c4c(c5c6ccccc6n2c5c31)C(=O)NC4 [Midostaurin] (first compound 0.0001 µM, partner dose 0.08 µM) | 351% |
| CC(=O)O[C@@]12CO[C@@H]1C[C@H](O)[C@@]1(C)C(=O)[C@H](O)C3=C(C)[C@@H](OC(=O)[C@H](O)[C@@H](NC(=O)OC(C)(C)C)c4ccccc4)C[C@@](O)([C@@H](OC(=O)c4ccccc4)[C@H]21)C3(C)C [Docetaxel] + Cc1ccc(NC(=O)c2cccc(N(C)C)c2)cc1NC(=O)c1ccc(O)cc1 [ZM336372] (first compound 0.0001 µM, partner dose 2 µM) | 336% |
| Cn1sc(=O)n(Cc2ccccc2)c1=O + NC(=O)Nc1cc(-c2cccc(F)c2)sc1C(=O)N[C@H]1CCCNC1 [AZD7762] (first compound 0.4 µM, partner dose 0.02 µM) | 103% |
| C[C@@H](N)c1ccc(C(=O)Nc2ccnc3[nH]ccc23)cc1 + O=C(O)c1ccc(-c2c[nH]c3ncc(-c4ccccc4)cc23)cc1C1CCCC1 [GSK650394] (first compound 0.4 µM, partner dose 0.16 µM) | 106% |
| NC1(c2ccc(-c3nc4ccn5c(=O)[nH]nc5c4cc3-c3ccccc3)cc2)CCC1 + NC(=O)Nc1cc(-c2cccc(F)c2)sc1C(=O)N[C@H]1CCCNC1 [AZD7762] (first compound 0.4 µM, partner dose 0.02 µM) | 45.7% |
| COc1ccc(C2=N[C@@H](c3ccc(Cl)cc3)[C@@H](c3ccc(Cl)cc3)N2C(=O)N2CCNC(=O)C2)c(OC(C)C)c1 [Nutlin-3] + COc1cc2c(Oc3ccc4[nH]c(C)cc4c3F)ncnc2cc1OCCCN1CCCC1 [cediranib] (first compound 0.1 µM, partner dose 0.4 µM) | 30.7% |
| Cn1cnc2c(F)c(Nc3ccc(Br)cc3Cl)c(C(=O)NOCCO)cc21 [selumetinib] + CC1(C)NC(=O)N(c2ccc([N+](=O)[O-])c(C(F)(F)F)c2)C1=O [nilutamide] (first compound 0.015 µM, partner dose 1 µM) | 85.4% |
| NC(=O)c1ccc(N(C(N)=O)c2c(F)cccc2F)nc1-c1ccc(F)cc1F + Cc1ccc(NC(=O)c2cccc(N(C)C)c2)cc1NC(=O)c1ccc(O)cc1 [ZM336372] (first compound 0.4 µM, partner dose 2 µM) | 108% |
| CC1(C)CCC(c2ccc(Cl)cc2)=C(CN2CCN(c3ccc(C(=O)NS(=O)(=O)c4ccc(N[C@H](CCN5CCOCC5)CSc5ccccc5)c(S(=O)(=O)C(F)(F)F)c4)cc3)CC2)C1 + CN(NC(=O)CC(=O)NN(C)C(=S)c1ccccc1)C(=S)c1ccccc1 [STA4783] (first compound 0.4 µM, partner dose 0.006 µM) | 268% |
| Cn1cnc2c(F)c(Nc3ccc(Br)cc3Cl)c(C(=O)NOCCO)cc21 [selumetinib] + NCC(=O)Nc1ccc(-n2nc(C(F)(F)F)cc2-c2ccc3c(ccc4ccccc43)c2)cc1 [OSU03012] (first compound 0.015 µM, partner dose 1 µM) | 147% |
| CC1(C)CCC(c2ccc(Cl)cc2)=C(CN2CCN(c3ccc(C(=O)NS(=O)(=O)c4ccc(N[C@H](CCN5CCOCC5)CSc5ccccc5)c(S(=O)(=O)C(F)(F)F)c4)cc3)CC2)C1 + CC1(C)NC(=O)N(c2ccc([N+](=O)[O-])c(C(F)(F)F)c2)C1=O [nilutamide] (first compound 0.4 µM, partner dose 1 µM) | 143% |
| CC1(C)CCC(c2ccc(Cl)cc2)=C(CN2CCN(c3ccc(C(=O)NS(=O)(=O)c4ccc(N[C@H](CCN5CCOCC5)CSc5ccccc5)c(S(=O)(=O)C(F)(F)F)c4)cc3)CC2)C1 + COc1cc(Nc2ncc(F)c(Nc3ccc4c(n3)NC(=O)C(C)(C)O4)n2)cc(OC)c1OC [Tamatinib] (first compound 0.4 µM, partner dose 0.4 µM) | 113% |
| CCCCCCCCc1ccc(CCC(N)(CO)CO)cc1 [fingolimod] + OCCn1cc(-c2cnc3nnn(Cc4ccc5ncccc5c4)c3n2)cn1 [PF04217903] (first compound 2 µM, partner dose 1 µM) | 65.7% |
| C[C@]1(O)C[C@@H](c2nc(-c3ccc4ccc(-c5ccccc5)nc4c3)c3c(N)nccn32)C1 + COc1cc(Nc2ncc(F)c(Nc3ccc4c(n3)NC(=O)C(C)(C)O4)n2)cc(OC)c1OC [Tamatinib] (first compound 0.4 µM, partner dose 0.4 µM) | 359% |
| CCN(CC)CCNC(=O)c1c(C)[nH]c(/C=C2\C(=O)Nc3ccc(F)cc32)c1C [sunitinib] + O=C(Nc1cccc(Cl)c1)Nc1ncc(CCNc2ncnc3ccsc23)s1 [SNS314] (first compound 0.4 µM, partner dose 0.0008 µM) | 175% |
| NC1(c2ccc(-c3nc4ccn5c(=O)[nH]nc5c4cc3-c3ccccc3)cc2)CCC1 + O=C(Nc1cccc(Cl)c1)Nc1ncc(CCNc2ncnc3ccsc23)s1 [SNS314] (first compound 0.4 µM, partner dose 0.0008 µM) | 158% |
| C[C@@H](N)c1ccc(C(=O)Nc2ccnc3[nH]ccc23)cc1 + C[C@@H]1CCN(C(=O)CC#N)C[C@@H]1N(C)c1ncnc2[nH]ccc12 [CP690550] (first compound 0.4 µM, partner dose 1 µM) | 37.7% |
| CN(c1ncccc1CNc1nc(Nc2ccc3c(c2)CC(=O)N3)ncc1C(F)(F)F)S(C)(=O)=O + NC(=O)Nc1cc(-c2cccc(F)c2)sc1C(=O)N[C@H]1CCCNC1 [AZD7762] (first compound 0.08 µM, partner dose 0.02 µM) | 121% |
| C[C@@H](N)c1ccc(C(=O)Nc2ccnc3[nH]ccc23)cc1 + Cc1cc(N2CCOCC2)cc2[nH]c(-c3c(NC[C@@H](O)c4cccc(Cl)c4)cc[nH]c3=O)nc12 [BMS536924] (first compound 0.4 µM, partner dose 0.2 µM) | 60.5% |
| NC1(c2ccc(-c3nc4ccn5c(=O)[nH]nc5c4cc3-c3ccccc3)cc2)CCC1 + CC(C)(C)c1cnc(CSc2cnc(NC(=O)C3CCNCC3)s2)o1 [SNS-032] (first compound 0.4 µM, partner dose 0.01 µM) | 125% |
| C[C@]1(O)C[C@@H](c2nc(-c3ccc4ccc(-c5ccccc5)nc4c3)c3c(N)nccn32)C1 + NC(=O)Nc1cc(-c2cccc(F)c2)sc1C(=O)N[C@H]1CCCNC1 [AZD7762] (first compound 0.4 µM, partner dose 0.02 µM) | 294% |
| CCN(CC)CCNC(=O)c1c(C)[nH]c(/C=C2\C(=O)Nc3ccc(F)cc32)c1C [sunitinib] + C=CCn1c(=O)c2cnc(Nc3ccc(N4CCN(C)CC4)cc3)nc2n1-c1cccc(C(C)(C)O)n1 [MK1775] (first compound 0.4 µM, partner dose 0.02 µM) | 66% |

Single values from the results shown:
NC1(c2ccc(-c3nc4ccn5c(=O)[nH]nc5c4cc3-c3ccccc3)cc2)CCC1 + O=C(Nc1cccc(Cl)c1)Nc1ncc(CCNc2ncnc3ccsc23)s1 [SNS314] (first compound 0.4 µM, partner dose 0.0008 µM) | cleaved PARP positive nuclei fraction: 158%
CC1(C)CCC(c2ccc(Cl)cc2)=C(CN2CCN(c3ccc(C(=O)NS(=O)(=O)c4ccc(N[C@H](CCN5CCOCC5)CSc5ccccc5)c(S(=O)(=O)C(F)(F)F)c4)cc3)CC2)C1 + CC1(C)NC(=O)N(c2ccc([N+](=O)[O-])c(C(F)(F)F)c2)C1=O [nilutamide] (first compound 0.4 µM, partner dose 1 µM) | cleaved PARP positive nuclei fraction: 143%
